Data taken from doi:10.1101/2021.09.27.462041.
Results are given in words; binding and its absence hold for the method and conditions named. Binding seen in cells or lysates may run through a third protein. Sequences can lack the tags named with a protein.

Target: T1, HA-tagged N-terminal (HA-NT) DIDO3 fragment, DIDO3(1-528) (mouse) (UniProt Q8C9B9)
T1 sequence: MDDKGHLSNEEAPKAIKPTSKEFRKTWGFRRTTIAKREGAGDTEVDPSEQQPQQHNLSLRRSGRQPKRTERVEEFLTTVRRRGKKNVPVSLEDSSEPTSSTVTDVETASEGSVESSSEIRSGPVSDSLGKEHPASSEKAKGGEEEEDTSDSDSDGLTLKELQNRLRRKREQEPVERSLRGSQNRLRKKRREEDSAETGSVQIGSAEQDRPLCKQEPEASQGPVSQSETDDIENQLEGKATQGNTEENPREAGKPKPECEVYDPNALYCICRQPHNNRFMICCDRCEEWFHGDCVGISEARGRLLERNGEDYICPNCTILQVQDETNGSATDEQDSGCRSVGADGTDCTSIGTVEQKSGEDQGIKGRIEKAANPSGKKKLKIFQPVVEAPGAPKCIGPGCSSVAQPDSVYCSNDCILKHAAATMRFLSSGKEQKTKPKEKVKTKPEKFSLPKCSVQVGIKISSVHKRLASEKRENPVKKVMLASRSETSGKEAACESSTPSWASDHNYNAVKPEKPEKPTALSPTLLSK
Test: co-IP

B1: CTCF (protein, UniProt Q61164 1-736)
chain: MEGEAVEAIVEESETFIKGKERKTYQRRREGGQEEDACHLPQNQTDGGEVVQDVNSSVQMVMMEQLDPTLLQMKTEVMEGTVAPEAEAAVDDTQIITLQVVNMEEQPINIGELQLVQVPVPVTVPVATTSVEELQGAYENEVSKEGLAESEPMICHTLPLPEGFQVVKVGANGEVETLEQGELPPQEDSSWQKDPDYQPPAKKTKKTKKSKLRYTEEGKDVDVSVYDFEEEQQEGLLSEVNAEKVVGNMKPPKPTKIKKKGVKKTFQCELCSYTCPRRSNLDRHMKSHTDERPHKCHLCGRAFRTVTLLRNHLNTHTGTRPHKCPDCDMAFVTSGELVRHRRYKHTHEKPFKCSMCDYASVEVSKLKRHIRSHTGERPFQCSLCSYASRDTYKLKRHMRTHSGEKPYECYICHARFTQSGTMKMHILQKHTENVAKFHCPHCDTVIARKSDLGVHLRKQHSYIEQGKKCRYCDAVFHERYALIQHQKSHKNEKRFKCDQCDYACRQERHMIMHKRTHTGEKPYACSHCDKTFRQKQLLDMHFKRYHDPNFVPAAFVCSKCGKTFTRRNTMARHADNCAGPDGVEGENGGETKKSKRGRKRKMRSKKEDSSDSEENAEPDLDDNEEEEEPAVEIEPEPEPQPQPPPPPQPVAPAPPPAKKRRGRPPGRTNQPKQNQPTAIIQVEDQNTGAIENIIVEVKKEPDAEPAEGEEEEAQAATTDAPNGDLTPEMILSMMDR
binding: no binding
